Some of these results come from one statement about several compounds together.
Biological target: Pin1 (Homo sapiens, UniProt Q13526)
Test: In-vitro Pin1 covalent labeling by intact protein LC/MS
Format: binding
Parameters: The catalytic domain of Pin1 (2 μM) in 20 mM Tris, 75 mM NaCl, pH 7.5 was incubated with 2 μM Sulfamate; made in house
Conditions: 2 μM compound, 2 μM Pin1, pH 7.5, 1 h, 25° C.
Protocol: Pin1 was expressed and purified as previously reported^38. The catalytic domain of Pin1 (2 μM) in 20 mM Tris, 75 mM NaCl, pH 7.5 was incubated with 2 μM Sulfamate (4a-4g) for 1 h at 25° C.
The reaction mixtures, at room temperature for various times, were injected into the LC/MS. For data analysis, the raw spectra were deconvoluted using a 20000:40000 Da (For Pin1, 10000:30000) window and 1 Da resolution. The labeling percentage for a compound was determined as the labeling of a specific compound (alone or together with other compounds) divided by the overall detected protein species.
Initially, these compounds (4a-4g; 2 μM) were incubated with Pin1 (2 μM; […] Tris buffer; pH 7.5, 1 h; 25° C.) to check covalent labeling by intact protein MS (FIG. 11B,C; FIG. 10).

Protein sequences, listed by entry. Tags and fused reporters are not part of them. Residues count along the entry.
UniProt Q13526, 52-163 limits assumed: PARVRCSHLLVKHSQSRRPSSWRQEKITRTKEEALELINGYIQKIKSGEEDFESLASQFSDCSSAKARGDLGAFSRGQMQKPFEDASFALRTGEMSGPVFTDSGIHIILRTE

| Compound | Pin1 labeling by intact protein MS [%] |
| --- | --- |
| CC(C)(C)CN(C(=O)COS(=O)(=O)Nc1ccccc1)C1CCS(=O)(=O)C1 (centres unmarked) [Compound 4d, 2-((1,1-dioxidotetrahydrothiophen-3-yl)(neopentyl)amino)-2-oxoethyl Phenylsulfamate] | > 90 |
| CC(C)(C)CN(C(=O)COS(=O)(=O)Nc1ccc(Br)cc1)C1CCS(=O)(=O)C1 (centres unmarked) [Compound 4e, 2-((1,1-dioxidotetrahydrothiophen-3-yl)(neopentyl)amino)-2-oxoethyl (4-bromophenyl)sulfamate] | > 90 |

Reference: patent US20230406837A1, “SULFAMATE MODULATORS OF PIN1 ACTIVITY AND USES THEREOF” (Yeda Research and Development Co., Ltd., priority 2022, published 2023)
